{"source": "paper PMC6986443", "about": "“T‐495, a novel low cooperative M1 receptor positive allosteric modulator, improves memory deficits associated with cholinergic dysfunction and is characterized by low gastrointestinal side effect risk” (Pharmacology Research & Perspectives, 2020)", "system": "CaMKIIα‐tTA/A53T α‐syn dTg mice", "assay": "Contextual fear conditioning (CFC) test", "format": "in vivo, mouse", "method": "The CFC test was performed in a clear conditioning chamber (33 cm wide, 25 cm long, and 28 cm high; O’Hara & Co., Ltd.) surrounded by a sound‐attenuating box. The illumination in the chamber was maintained at 100 lux. Conditioned stimulus (CS) and unconditioned stimulus (US) were automatically delivered by a tone generator and a shock generator (O’Hara & Co., Ltd.), respectively. On Day 1 (habituation phase), vehicle was orally administered, and mice were placed in the conditioning chamber. They were allowed to freely explore for 120 seconds and then returned to their home cages. […] Mice were placed in the chamber for 120 seconds before the onset of a tone (CS, 60 dB for 30 s). The last 2 seconds of the CS were paired with a foot shock (US, 0.25 mA), and mice were removed and returned to their home cages 180 seconds after the US. […] Mice were again placed in the same chamber for 180 seconds. Freezing behavior was analyzed using ImageJ FZ4 (O’Hara & Co., Ltd.) during the conditioning and retention phases."}
{"smiles": "COc1cc2c(cc1OC)C(=O)C(CC1CCN(Cc3ccccc3)CC1)C2", "note": "(centres unmarked) [donepezil, reference compound]", "values": [{"measurement": "level of freezing behavior during the conditioning phase", "setting": "1 mg/kg p.o.", "value": "did not affect"}, {"measurement": "reduced level of freezing behavior during the retention phase", "setting": "1 mg/kg p.o. 2 h before conditioning and retention", "value": "significantly reversed"}]}
